The assay relates to L1210 leukemia ip in BDF1 mice, survival T/C. Briefly: NCI In Vivo Anticancer Drug Screen. Data for tumor model L1210 Leukemia (intraperitoneal) in B6D2F1 (BDF1) mice. Conditions: T/C endpoint: mean survival time, higher T/C = longer survival.
The mark [1] stands for this setting: dose: 400.0 mg/kg/injection, schedule: Q01DX001 (ip), vehicle: saline.
The mark [2] stands for this setting: dose: 100.0 mg/kg/injection, schedule: Q04DX003 (ip), vehicle: Klucel (hydroxypropylcellulose) (HPC).
The mark [3] stands for this setting: dose: 200.0 mg/kg/injection, schedule: Q04DX003 (ip), vehicle: Klucel (hydroxypropylcellulose) (HPC).
[4] abbreviates: dose: 400.0 mg/kg/injection, schedule: Q04DX003 (ip), vehicle: Klucel (hydroxypropylcellulose) (HPC).
Where [5] appears, read: dose: 150.0 mg/kg/injection, schedule: Q01DX001 (ip), vehicle: saline.
[6] abbreviates: dose: 300.0 mg/kg/injection, schedule: Q01DX001 (ip), vehicle: saline.
Where [7] appears, read: dose: 400.0 mg/kg/injection, schedule: Q01DX009 (ip), vehicle: acetone.
Where [8] appears, read: dose: 300.0 mg/kg/injection, schedule: Q01DX001 (ip), vehicle: carboxymethylcellulose (CMC).

The list is a part of this screen's results and no random one: it gathers tests that were run many times, whatever their T/C, doses with no T/C, and many T/C values between a quarter and a half above the control. Further doses and runs are listed elsewhere. T/C is the treated group as % of the vehicle group. Some doses have a count of surviving animals in place of a T/C: the source files T/C as zero there, which appears to mark a toxic dose or a test without result, not a measured value. Some doses without a T/C left all or most animals alive at the check, yet need not have been tolerated: the source hardly ever lists a survival T/C far under the control, and the zero likely stands for such cases as well. Survivors were counted at the toxicity check, usually on the fifth day, unless a day is given; later deaths do not show. Schedule codes are those of the source, taken here to give the interval after Q, in days (D) or hours (H), and the number of doses after X. Some schedules carry Z or #; the key to these is not given. Where survival is the endpoint, the PubChem record calls one and a half times the control and up active, and a quarter to a half above the control has no call in these data; cut-offs in other NCI protocols can differ.

Regarding `O=C1OC(/C=C/c2ccccc2)=NC/1=C\c1cccc([N+](=O)[O-])c1`, the survivor count (dose: 100.0 mg/kg/injection, schedule: Q04DX002 (ip), vehicle: Klucel (hydroxypropylcellulose) (HPC)) is 3 of 3; the survivor count (dose: 200.0 mg/kg/injection, schedule: Q04DX002 (ip), vehicle: Klucel (hydroxypropylcellulose) (HPC)) is recorded as 3 of 3; the survivor count (dose: 400.0 mg/kg/injection, schedule: Q04DX002 (ip), vehicle: Klucel (hydroxypropylcellulose) (HPC)) is listed as 3 of 3.
As for `O=C(C[n+]1ccccc1/C=N/O)c1ccccc1`, the survivor count (dose: 150.0 mg/kg/injection, schedule: Q01DX001 (ip), vehicle: other) is recorded as 1 of 6 and the survivor count (dose: 300.0 mg/kg/injection, schedule: Q01DX001 (ip), vehicle: other) is 1 of 6.
For the compound `CCOC(=O)/C(=C/c1ccc(OC)c(OC)c1)P(=O)(OCC)OCC`, the survivor count is 0 of 4 (dose: 200.0 mg/kg/injection, schedule: Q01DX001 (ip), vehicle: saline) and 0 of 4 under setting [1].
Regarding `C=CCNC(=S)Nc1cccc2ccccc12`, the survivor count under setting [2] is on record as 6 of 6, the survivor count under setting [3] is 4 of 6 and the survivor count under setting [4] is 0 of 6.
For `O=C(Nc1ccccc1)Sc1ccccc1`, the survivor count was 6 of 6 (dose: 125.0 mg/kg/injection, schedule: Q01DX001 (ip), vehicle: Klucel (hydroxypropylcellulose) (HPC)) and 1 of 6 (dose: 250.0 mg/kg/injection, schedule: Q01DX001 (ip), vehicle: Klucel (hydroxypropylcellulose) (HPC)).
For the compound `O=N[O-].[Co].[N-]=C=S.[NH2-].[NH2-].[NH2-].[NH2-]`, the T/C is 130 % of control (dose: 25.0 mg/kg/injection, schedule: Q01DX009 (ip), vehicle: saline) and 130 % of control (dose: 45.0 mg/kg/injection, schedule: Q01DX009 (ip), vehicle: saline). Moreover, for the setting “dose: 400.0 mg/kg/injection, schedule: Q04DX003 (ip), vehicle: saline with Tween-80”, the survivor count was 0 of 6.
Consider `CN(C)c1ccc(C2OC3(CCCCC3)C[N+]23CCCC3)cc1` (stereo not drawn), for which the survivor count is recorded as 0 of 6 (dose: 200.0 mg/kg/injection, schedule: Q04DX003 (ip), vehicle: acetone) and 0 of 6 (dose: 400.0 mg/kg/injection, schedule: Q04DX003 (ip), vehicle: acetone).
Turning to `CCNC(Cc1ccccc1)c1ccc(OC)cc1` (stereo not drawn), the survivor count was 3 of 6 (dose: 100.0 mg/kg/injection, schedule: Q01DX009 (ip), vehicle: Klucel (hydroxypropylcellulose) (HPC)); 0 of 6 under setting [3]; 0 of 6 under setting [4].
With `O=C(NCC(O)CNC(=O)Nc1ccc(C2=NCC(O)CN2)cc1)Nc1ccc(C2=NCC(O)CN2)cc1` (stereo not drawn), the survivor count (dose: 200.0 mg/kg/injection, schedule: Q01DX Z (ip), vehicle: carboxymethylcellulose (CMC)) was 0 of 6.
`Cc1ccccc1OCC(Cl)CN(C)C` (stereo not drawn): the survivor count under setting [1] is 0 of 4.
Consider `O=C[CH2][Hg][Cl]`, for which the survivor count is reported as 0 of 3 (dose: 50.0 mg/kg/injection, schedule: Q01DX009 (ip), vehicle: saline with Tween-80); 0 of 3 (dose: 100.0 mg/kg/injection, schedule: Q01DX009 (ip), vehicle: saline with Tween-80); 0 of 3 (dose: 200.0 mg/kg/injection, schedule: Q01DX009 (ip), vehicle: saline with Tween-80).
For `CC12CCC(C/C1=N\O)C2(C)C` (stereo not drawn), the survivor count is given as 0 of 6 (dose: 75.0 mg/kg/injection, schedule: Q01DX009 (ip), vehicle: saline with Tween-80); 0 of 6 (dose: 150.0 mg/kg/injection, schedule: Q01DX009 (ip), vehicle: saline with Tween-80); 0 of 6 (dose: 300.0 mg/kg/injection, schedule: Q01DX009 (ip), vehicle: saline with Tween-80).
For `CCCCCCCCC(=O)N1CC1`, the survivor count under setting [4] was 6 of 6.
Regarding `CN1CCCCC1c1cccnc1` (stereo not drawn), the survivor count is, setting by setting: (dose: 75.0 mg/kg/injection, schedule: Q01DX001 (ip), vehicle: saline) 0 of 6; under setting [5], 0 of 6; under setting [6], 0 of 6.
Turning to `CCCCC[CH2][Sn]([CH2]C)([CH2]C)[CH2]C`, the survivor count (dose: 400.0 mg/kg/injection, schedule: Q04DX002 (ip), vehicle: saline) is recorded as 0 of 3.
Take `ClCc1c(Cl)c(Cl)c(Cl)c(CCl)c1Cl`: the survivor count (dose: 400.0 mg/kg/injection, schedule: Q01DX009 (ip), vehicle: Klucel (hydroxypropylcellulose) (HPC)) is recorded as 1 of 6.
Take `CN(C)c1ccc(C(C#N)=C(C#N)C#N)cc1`: the survivor count under setting [7] is 4 of 6.
Take `ClC(Cl)=C(Cl)C(Cl)=C(Cl)Cl`: the survivor count reads like this: (dose: 25.0 mg/kg/injection, schedule: Q04DX003 (ip), vehicle: Klucel (hydroxypropylcellulose) (HPC)) 0 of 6; (dose: 50.0 mg/kg/injection, schedule: Q04DX003 (ip), vehicle: Klucel (hydroxypropylcellulose) (HPC)) 0 of 6; under setting [2], 0 of 6; (dose: 200.0 mg/kg/injection, schedule: Q04DX003 (ip), vehicle: carboxymethylcellulose (CMC)) 2 of 6; (dose: 400.0 mg/kg/injection, schedule: Q04DX003 (ip), vehicle: carboxymethylcellulose (CMC)) 0 of 6.
As to `CCOC(=O)C=C1CCP(C)CC1` (stereo not drawn), under setting [8], the survivor count is given as 0 of 6.
Turning to `CC[N+](C)(C)CCOC(=O)C1C2CC3OC(=O)C1C3C2` (stereo not drawn), the survivor count (dose: 400.0 mg/kg/injection, schedule: Q04DX003 (ip), vehicle: saline) is recorded as 0 of 4.
For `O=C(COc1ccc(Cl)cc1)Nc1ccccc1C(F)(F)F`, the survivor count (dose: 200.0 mg/kg/injection, schedule: Q01DX009 (ip), vehicle: Klucel (hydroxypropylcellulose) (HPC)) is 5 of 6.
For `NNC(=O)c1ccc[nH]1`, the survivor count reads like this: under setting [5], 0 of 6; under setting [6], 0 of 6.
Turning to `C/C(=C\Br)CBr`, the survivor count reads like this: (dose: 200.0 mg/kg/injection, schedule: Q01DX009 (ip), vehicle: acetone) 0 of 6; under setting [7], 0 of 6.
Consider `FC(F)(F)COC(Br)CBr` (stereo not drawn), for which the survivor count was 1 of 6 (dose: 75.0 mg/kg/injection, schedule: Q01DX001 (ip), vehicle: carboxymethylcellulose (CMC)); 0 of 6 (dose: 150.0 mg/kg/injection, schedule: Q01DX001 (ip), vehicle: carboxymethylcellulose (CMC)); 0 of 6 under setting [8].
Take `CCC(=N\N=C(N)N)/C(C)=N\N=C(N)N`: the T/C (dose: 60.0 mg/kg/injection, schedule: Q01DX Z (ip), vehicle: saline) is 125 % of control. Besides, the survivor count (dose: 240.0 mg/kg/injection, schedule: Q01DX Z (ip), vehicle: saline) was 0 of 6 and the survivor count (dose: 480.0 mg/kg/injection, schedule: Q01DX Z (ip), vehicle: saline) is reported as 0 of 6.
